Measurements reported in PubChem BioAssay AID504784 (Drosophila RNAi Screening Center, 2011)

Test: 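Genome-wide knock-down for genes giving too much or too little stored lipid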 (primary screen)
Cell system: Drosophila Kc167 embryonic cells
Reagent: long dsRNA against Drosophila genes, about 250 ng dsRNA per well
Time to read-out: 4 days
Conditions: cells fed 400 µM oleic acid bound to BSA
Detection: 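Cells imaged and segmented; ratio of lipid droplet area to nuclear area, log-transformed, then normalised as a B-score over the screen; higher means more stored lipid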
Direction: droplet/nuclear area B-score: higher = more stored lipid (overstorage)
In all, the deposit lists about 17,000 reagents; this is a random part of those with a known target gene and a result. 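Each column is one replicate's B-score; the combined score over replicates was not deposited, so single values may mislead.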 The numbers tell different reagents against one gene apart. Further read-outs or replicates are left out here. Reagent sequences are not shown.

target | reagent no. | droplet/nuclear area B-score, replicate 1
rtv (retroactive) | 1 | -0.286
EndoA (Endophilin A) | 1 | 0.516
t-Grip91 (testis-specific gamma-tubulin ring protein 91) | 1 | -0.391
CG12877 | 1 | 0.0472
Hap40 (Huntingtin-associated protein 40 kDa) | 1 | 2.65
CG16898 | 1 | 1.36
mex1 (midgut expression 1) | 1 | -0.536
CG14490 | 1 | 0.452
BtbVII (BTB-protein-VII) | 1 | 1.69
BtbVII (BTB-protein-VII) | 2 | -0.479
insb (insensible) | 1 | 2.38
Xxylt (Xyloside xylosyltransferase) | 1 | 0.119
Trmt61 (tRNA methyltransferase 61) | 1 | -1.23
dgo (diego) | 1 | 1.35
CG5065 | 1 | -0.316
Mal-A1 (Maltase A1) | 1 | 1.23

Next part; the last 4 above are carried over.
target | reagent no. | droplet/nuclear area B-score, replicate 1
Trmt61 (tRNA methyltransferase 61) | 1 | -1.23
dgo (diego) | 1 | 1.35
CG5065 | 1 | -0.316
Mal-A1 (Maltase A1) | 1 | 1.23
ArfGAP1 (ADP-ribosylation factor GTPase activating protein 1) | 1 | -1.06
CG2540 | 1 | -0.536
sli (slit) | 1 | -0.466
CG5757 | 1 | -0.484
CG8209 | 1 | -1.71
CG12229 | 1 | -0.575
Prosbeta6 (Proteasome beta6 subunit) | 1 | -0.932
CG5050 | 1 | 0.0546
CG1542 | 1 | -0.501
osy (oskyddad) | 1 | 0.0565
osy (oskyddad) | 2 | -1.43
osy (oskyddad) | 3 | 0.342
CG30480 | 1 | 0.433
CG17202 | 1 | 2.11
CG17202 | 2 | 2.4
Adgf-B (Adenosine deaminase-related growth factor B) | 1 | -0.431
Gr64b (Gustatory receptor 64b) | 1 | 0.076
Trs33 (TRAPP subunit 33) | 1 | -0.0302
